# Reference: PMC8198571
# B1: CML10 (protein, UniProt P30187 1-191)
# chain: MANKFTRQQISEFREQFSVYDKNGDGHITTEEFGAVMRSLGLNLTQAELQEEINDSDLDGDGTINFTEFLCAMAKDTYSEKDLKKDFRLFDIDKNGFISAAEMRYVRTILRWKQTDEEIDEIIKAADVDGDGQINYREFARLMMAKNQGHDTKYDTTGGTLERDLAAGVAKNIIAAPMTDFIKNLFEALFS
# B2: CML9 (protein, UniProt Q9S744 1-151)
# chain: MADAFTDEQIQEFYEAFCLIDKDSDGFITKEKLTKVMKSMGKNPKAEQLQQMMSDVDIFGNGGITFDDFLYIMAQNTSQESASDELIEVFRVFDRDGDGLISQLELGEGMKDMGMKITAEEAEHMVREADLDGDGFLSFHEFSKMMIAASY
# Experiments:
# Assay in all cases: two-hybrid; C-terminus regions of MLO proteins against CaM/CML proteins; CML12 in pGADT7 (AD), MLO4C in pGBKT7 (BD); yeast strain AH109; selection on SD/-Trp-Leu-His-Ade plates for 3 to 7 days
# [1] = molecular target: NTA variant K457N (C-terminus) (Arabidopsis thaliana)
# [2] = molecular target: NTA variant L452R (C-terminus) (Arabidopsis thaliana)
# [3] = molecular target: NTA variant L464R (C-terminus) (Arabidopsis thaliana)
# [4] = molecular target: NTA variant W455R (C-terminus) (Arabidopsis thaliana)
Binder,binding [1],binding [2],binding [3],binding [4]
B1,binds,binds,binds,binds
B2,no binding,no binding,no binding,no binding

# No constants are given. Whether binding was seen depends on the method and setting. A result given as binding can be weak or reduced; the word gives no strength.
